# Assay results published in the supplement of paper PMC4604168 (melanoma cell lines).
# This is one part of the list. Many values rest on one well or one pass, so single values are uncertain.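 Cells were imaged in 1,536-well plates, and nuclei stained with an antibody against cleaved PARP were counted against all DNA-stained nuclei to give the apoptosis fraction. Screening doses were chosen to leave most cells alive, and resting and induced cleaved-PARP levels differ strongly between cell lines.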
# System: SkMel28
# Experiment: cleaved PARP positive nuclei fraction relative to DMSO control; melanoma cells; higher = more apoptosis
# Settings: library dose: low library concentration; 72 h
row,SMILES,cleaved PARP positive nuclei fraction
1,"NC(=O)Nc1cc(-c2cccc(F)c2)sc1C(=O)N[C@H]1CCCNC1 + Oc1cc(-c2nc(-c3ccccc3)[nH]c2-c2ccncc2)ccc1Cl [L779450] (first compound 0.02 µM, partner dose 0.2 µM)",93.7%
2,"C#Cc1cccc(Nc2ncnc3cc(OCCOC)c(OCCOC)cc23)c1 [erlotinib] + c1cc(-c2cnn3cc(-c4ccc(OCCN5CCCCC5)cc4)cnc23)ccn1 [Dorsomorphin] (first compound 0.8 µM, partner dose 0.4 µM)",104%
3,"O=C(CCCCCCC(=O)Nc1ccccc1)NO [vorinostat] + CC(C)CCN1c2nc(Nc3cc(F)c(O)c(F)c3)ncc2N(C)C(=O)C1C [BID1870] (first compound 0.08 µM, partner dose 0.2 µM)",152%
4,"C#Cc1cccc(Nc2ncnc3cc(OCCOC)c(OCCOC)cc23)c1 [erlotinib] + CCCCCCCCCCCC1=C(O)C(=O)C=C(O)C1=O [Embelin] (first compound 0.8 µM, partner dose 1.2 µM)",123%
5,"Cn1nnc2c(C(N)=O)ncn2c1=O [temozolomide] + CC(C)CCN1c2nc(Nc3cc(F)c(O)c(F)c3)ncc2N(C)C(=O)C1C [BID1870] (first compound 2 µM, partner dose 0.2 µM)",150%
6,"C#Cc1cccc(Nc2ncnc3cc(OCCOC)c(OCCOC)cc23)c1 [erlotinib] + O=C(O)C(=O)Nc1sc2c(c1C(=O)O)CCNC2 [TCS401] (first compound 0.8 µM, partner dose 1.66667 µM)",165%
7,"Cn1c(Nc2ccc(C(F)(F)F)cc2)nc2cc(Oc3ccnc(-c4ncc(C(F)(F)F)[nH]4)c3)ccc21 + CCc1ccc(CCOc2ccc(CC3SC(=O)NC3=O)cc2)nc1 [pioglitazone] (first compound 0.08 µM, partner dose 2 µM)",251%
8,"OCCn1cc(-c2cnc3nnn(Cc4ccc5ncccc5c4)c3n2)cn1 + N#Cc1c(O)c2c(-c3ccc(-c4ccccc4O)cc3)csc2[nH]c1=O [A769662] (first compound 1 µM, partner dose 2 µM)",106%
9,"C=CCn1c(=O)c2cnc(Nc3ccc(N4CCN(C)CC4)cc3)nc2n1-c1cccc(C(C)(C)O)n1 + O=C(O)C(=O)Nc1sc2c(c1C(=O)O)CCNC2 [TCS401] (first compound 0.02 µM, partner dose 1.66667 µM)",168%
10,"Cn1nnc2c(C(N)=O)ncn2c1=O [temozolomide] + COC(=O)c1sccc1S(=O)(=O)Nc1ccc(Nc2ccccc2)cc1OC [GSK0660] (first compound 2 µM, partner dose 1 µM)",123%
11,"C[C@@H]1CCN(C(=O)CC#N)C[C@@H]1N(C)c1ncnc2[nH]ccc12 + Oc1nc(-c2ccc(C(F)(F)F)cc2)nc2c1CSCC2 [XAV939] (first compound 1 µM, partner dose 2 µM)",212%
12,"COCC[n+]1c2c(n(Cc3cnccn3)c1C)C(=O)c1ccccc1C2=O + O=C(O)C(=O)Nc1sc2c(c1C(=O)O)CCNC2 [TCS401] (first compound 0.0004 µM, partner dose 1.66667 µM)",37.3%
13,"O=C(CCCCCCC(=O)Nc1ccccc1)NO [vorinostat] + Oc1nc(-c2ccc(C(F)(F)F)cc2)nc2c1CSCC2 [XAV939] (first compound 0.08 µM, partner dose 2 µM)",207%
14,"COc1cc(Nc2ncc(F)c(Nc3ccc4c(n3)NC(=O)C(C)(C)O4)n2)cc(OC)c1OC [Tamatinib] + COc1ccc(COc2ccc(Cc3cnc(N)nc3N)cc2OC)cc1 [GW2580] (first compound 0.4 µM, partner dose 1 µM)",130%
15,"Cc1nc(Nc2ncc(C(=O)Nc3c(C)cccc3Cl)s2)cc(N2CCN(CCO)CC2)n1 [dasatanib] + CCc1ccc(CCOc2ccc(CC3SC(=O)NC3=O)cc2)nc1 [pioglitazone] (first compound 0.004 µM, partner dose 2 µM)",237%
16,"Cc1cc(N2CCOCC2)cc2[nH]c(-c3c(NC[C@@H](O)c4cccc(Cl)c4)cc[nH]c3=O)nc12 + Cn1cc(/C=C2\C(=O)Nc3cccnc32)c2ccccc21 [GW441756] (first compound 0.2 µM, partner dose 0.4 µM)",163%
17,"O=C(CCCCCCC(=O)Nc1ccccc1)NO [vorinostat] + O=C(O)C(=O)Nc1sc2c(c1C(=O)O)CCNC2 [TCS401] (first compound 0.08 µM, partner dose 1.66667 µM)",147%
18,"OCCn1cc(-c2cnc3nnn(Cc4ccc5ncccc5c4)c3n2)cn1 + c1cc(-c2cnn3cc(-c4ccc(OCCN5CCCCC5)cc4)cnc23)ccn1 [Dorsomorphin] (first compound 1 µM, partner dose 0.4 µM)",185%

row,SMILES,cleaved PARP positive nuclei fraction
1,"CC1(C)NC(=O)N(c2ccc([N+](=O)[O-])c(C(F)(F)F)c2)C1=O [nilutamide] + CCCCCCCCCCCC1=C(O)C(=O)C=C(O)C1=O [Embelin] (first compound 1 µM, partner dose 1.2 µM)",46%
2,"Cn1nnc2c(C(N)=O)ncn2c1=O [temozolomide] + COc1ccc2c(c1)CCC1C2CCC2(C)C(NCCCCCCN3C(=O)C=CC3=O)CCC12 [U73122] (first compound 2 µM, partner dose 0.4 µM)",92.7%
3,"Cn1nnc2c(C(N)=O)ncn2c1=O [temozolomide] + O=S(=O)(c1ccccc1)N(CC(F)(F)F)c1ccc(C(O)(C(F)(F)F)C(F)(F)F)cc1 [T0901317] (first compound 2 µM, partner dose 1.4 µM)",77.8%
4,"O=C(CCCCCCC(=O)Nc1ccccc1)NO [vorinostat] + O=c1cc(-c2cccc3c2Sc2ccccc2S3)oc(N2CCOCC2)c1 [KU55933] (first compound 0.08 µM, partner dose 1 µM)",305%
5,"C[C@@H]1CCN(C(=O)CC#N)C[C@@H]1N(C)c1ncnc2[nH]ccc12 + CC(C)CCN1c2nc(Nc3cc(F)c(O)c(F)c3)ncc2N(C)C(=O)C1C [BID1870] (first compound 1 µM, partner dose 0.2 µM)",188%
6,"Cn1nnc2c(C(N)=O)ncn2c1=O [temozolomide] + COc1ccc(-c2ccc3c(N4CCOCC4)nc(N4C[C@@H](C)O[C@@H](C)C4)nc3n2)cc1CO [KU0063794] (first compound 2 µM, partner dose 0.02 µM)",94.2%
7,"Nc1cccc2c1CN(C1CCC(=O)NC1=O)C2=O (stereo not given) [lenalidomide] + CCN(CC)CCCCNc1ncc2cc(-c3cc(OC)cc(OC)c3)c(NC(=O)NC(C)(C)C)nc2n1 [PD173074] (first compound 1 µM, partner dose 0.1 µM)",83%
8,"Cc1nc(Nc2ncc(C(=O)Nc3c(C)cccc3Cl)s2)cc(N2CCN(CCO)CC2)n1 [dasatanib] + CCCCCCCCCCCC1=C(O)C(=O)C=C(O)C1=O [Embelin] (first compound 0.004 µM, partner dose 1.2 µM)",158%
9,"O=C(Nc1cccc(Cl)c1)Nc1ncc(CCNc2ncnc3ccsc23)s1 + Cn1cc(/C=C2\C(=O)Nc3cccnc32)c2ccccc21 [GW441756] (first compound 0.0008 µM, partner dose 0.4 µM)",162%
10,"Nc1cccc2c1CN(C1CCC(=O)NC1=O)C2=O (stereo not given) [lenalidomide] + COc1ccc(COc2ccc(Cc3cnc(N)nc3N)cc2OC)cc1 [GW2580] (first compound 1 µM, partner dose 1 µM)",88.1%
11,"Cc1ccc(NC(=O)c2cccc(N(C)C)c2)cc1NC(=O)c1ccc(O)cc1 + O=c1cc(-c2cccc3c2Sc2ccccc2S3)oc(N2CCOCC2)c1 [KU55933] (first compound 2 µM, partner dose 1 µM)",148%
12,"OCCn1cc(-c2cnc3nnn(Cc4ccc5ncccc5c4)c3n2)cn1 + Cc1cc([N+](=O)[O-])ccc1NS(=O)(=O)c1cc(Cl)ccc1Cl [FH535] (first compound 1 µM, partner dose 1 µM)",84%
13,"Cn1cncc1[C@@](N)(c1ccc(Cl)cc1)c1ccc2c(c1)c(-c1cccc(Cl)c1)cc(=O)n2C [tipifarnib] + O=c1cc(-c2cccc3c2Sc2ccccc2S3)oc(N2CCOCC2)c1 [KU55933] (first compound 0.01 µM, partner dose 1 µM)",180%
14,"NC(=O)Nc1cc(-c2cccc(F)c2)sc1C(=O)N[C@H]1CCCNC1 + c1cc(-c2cnn3cc(-c4ccc(OCCN5CCCCC5)cc4)cnc23)ccn1 [Dorsomorphin] (first compound 0.02 µM, partner dose 0.4 µM)",130%
15,"O=C(Nc1cccc(Cl)c1)Nc1ncc(CCNc2ncnc3ccsc23)s1 + CCc1ccc(CCOc2ccc(CC3SC(=O)NC3=O)cc2)nc1 [pioglitazone] (first compound 0.0008 µM, partner dose 2 µM)",104%
16,"C[C@]1(c2nc3c(C(N)=O)cccc3[nH]2)CCCN1 [Veliparib] + COc1ccc2c(c1)CCC1C2CCC2(C)C(NCCCCCCN3C(=O)C=CC3=O)CCC12 [U73122] (first compound 1.4 µM, partner dose 0.4 µM)",227%
17,"C[C@@H]1CCN(C(=O)CC#N)C[C@@H]1N(C)c1ncnc2[nH]ccc12 + COc1ccc2c(c1)CCC1C2CCC2(C)C(NCCCCCCN3C(=O)C=CC3=O)CCC12 [U73122] (first compound 1 µM, partner dose 0.4 µM)",145%

# Look-ups from the entries so far.
# Entry of O=C(CCCCCCC(=O)Nc1ccccc1)NO [vorinostat] + O=c1cc(-c2cccc3c2Sc2ccccc2S3)oc(N2CCOCC2)c1 [KU55933] (first compound 0.08 µM, partner dose 1 µM) under cleaved PARP positive nuclei fraction: 305%
# Entry of CC1(C)NC(=O)N(c2ccc([N+](=O)[O-])c(C(F)(F)F)c2)C1=O [nilutamide] + CCCCCCCCCCCC1=C(O)C(=O)C=C(O)C1=O [Embelin] (first compound 1 µM, partner dose 1.2 µM) under cleaved PARP positive nuclei fraction: 46%
